{"source": "the supplement of paper PMC8728848", "binders": {"B1": {"name": "EULS2 M3 (Oryza sativa) (protein)", "chain": "MVYCRANPNYAMTARNGAVVLAPANPKDEYQHWIKDMRWSTSIKDEEGYPAFALVNKATGQAIKHSLGQSHPVRLVPYNPEVMDESVLWTESRDVGNGFRCIRMVNNIYLNFDAFHGDKYHGGVRDGTDIVLWKLCEGDSLRWKIQPYYILEQKLISEEDLNSAVDHHHHHH"}}, "assay_in_all_cases": "glycan array binding signal (z-score within array); higher = stronger binding", "conditions_in_all_cases": "glycan notation: IUPAC condensed, linker removed", "key": {"Gal6S(b1-4)Glc6S": {"molecular_target": "Gal6S(b1-4)Glc6S", "in_short": "(§1)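 Glycan array data came from 3228 arrays in the Consortium for Functional Glycomics database, and only arrays with an available protein sequence were kept. Glycan names were put into IUPAC-condensed notation, and columns mapping to the same glycan were averaged. The binding signal is a within-array Z-score, averaged across arrays of one protein sequence run at different concentrations or buffers and across linkers. A negative Z-score can be read as non-binding.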"}, "Gal6S(b1-4)GlcNAc": {"molecular_target": "Gal6S(b1-4)GlcNAc", "in_short": "as §1"}, "Gal6S(b1-4)GlcNAc6S": {"molecular_target": "Gal6S(b1-4)GlcNAc6S", "in_short": "as §1"}, "GalNAc(a1-3)Gal": {"molecular_target": "GalNAc(a1-3)Gal", "in_short": "as §1"}, "GalNAc(a1-3)GalNAc": {"molecular_target": "GalNAc(a1-3)GalNAc", "in_short": "as §1"}, "[1]": {"molecular_target": "GalNAc(a1-3)GalNAc(b1-3)Gal(a1-4)Gal(b1-4)Glc", "in_short": "as §1"}, "[2]": {"molecular_target": "GalNAc(a1-3)GalNAc(b1-3)Gal(a1-4)Gal(b1-4)GlcNAc", "in_short": "as §1"}, "GalNAc(b1-3)Gal": {"molecular_target": "GalNAc(b1-3)Gal", "in_short": "as §1"}, "[3]": {"molecular_target": "GalNAc(b1-3)Gal(a1-4)Gal(b1-4)GlcNAc", "in_short": "as §1"}, "[4]": {"molecular_target": "GalNAc(b1-3)Gal(a1-4)Gal(b1-4)GlcNAc(b1-3)Gal(b1-4)Glc", "in_short": "as §1"}, "[5]": {"molecular_target": "GalNAc(b1-3)Gal(a1-6)Gal(b1-4)Glc", "in_short": "as §1"}, "GalNAc(b1-3)GalNAc": {"molecular_target": "GalNAc(b1-3)GalNAc", "in_short": "as §1"}, "GalNAc(b1-3)GlcNAc": {"molecular_target": "GalNAc(b1-3)GlcNAc", "in_short": "as §1"}, "GalNAc(b1-4)Gal(b1-4)Glc": {"molecular_target": "GalNAc(b1-4)Gal(b1-4)Glc", "in_short": "as §1"}, "GalNAc(b1-4)GlcNAc": {"molecular_target": "GalNAc(b1-4)GlcNAc", "in_short": "as §1"}, "[6]": {"molecular_target": "GalNAc(b1-4)GlcNAc(b1-2)Man", "in_short": "as §1"}, "[7]": {"molecular_target": "GalNAc(b1-4)GlcNAc(b1-2)Man(a1-3)[GalNAc(b1-4)GlcNAc(b1-2)Man(a1-6)]Man(b1-4)GlcNAc(b1-4)GlcNAc", "in_short": "as §1"}, "[8]": {"molecular_target": "GalNAc(b1-4)GlcNAc(b1-3)GalNAc(b1-4)GlcNAc", "in_short": "as §1"}, "GalNAc(b1-4)GlcNAc6S": {"molecular_target": "GalNAc(b1-4)GlcNAc6S", "in_short": "as §1"}, "GalNAc(b1-6)GalNAc": {"molecular_target": "GalNAc(b1-6)GalNAc", "in_short": "as §1"}, "GalNAc3S(b1-4)GlcNAc": {"molecular_target": "GalNAc3S(b1-4)GlcNAc", "in_short": "as §1"}, "GalNAc3S(b1-4)GlcNAc3S": {"molecular_target": "GalNAc3S(b1-4)GlcNAc3S", "in_short": "as §1"}, "[9]": {"molecular_target": "GalNAc3S(b1-4)[Fuc(a1-3)]GlcNAc", "in_short": "as §1"}, "GalNAc4S6S(b1-4)GlcNAc": {"molecular_target": "GalNAc4S6S(b1-4)GlcNAc", "in_short": "as §1"}, "GalNAc6S(b1-4)GlcNAc": {"molecular_target": "GalNAc6S(b1-4)GlcNAc", "in_short": "as §1"}, "Glc(a1-4)Glc": {"molecular_target": "Glc(a1-4)Glc", "in_short": "as §1"}, "[10]": {"molecular_target": "Glc(a1-4)Glc(a1-4)Glc(a1-4)Glc", "in_short": "as §1"}, "Glc(a1-6)Glc(a1-6)Glc": {"molecular_target": "Glc(a1-6)Glc(a1-6)Glc", "in_short": "as §1"}, "[11]": {"molecular_target": "Glc(a1-6)Glc(a1-6)Glc(a1-6)Glc", "in_short": "as §1"}, "Glc(b1-4)Glc": {"molecular_target": "Glc(b1-4)Glc", "in_short": "as §1"}, "Glc(b1-6)Glc": {"molecular_target": "Glc(b1-6)Glc", "in_short": "as §1"}, "GlcA(b1-3)Gal": {"molecular_target": "GlcA(b1-3)Gal", "in_short": "as §1"}, "GlcA(b1-3)GlcNAc": {"molecular_target": "GlcA(b1-3)GlcNAc", "in_short": "as §1"}, "GlcA(b1-6)Gal": {"molecular_target": "GlcA(b1-6)Gal", "in_short": "as §1"}, "[12]": {"molecular_target": "GlcA3S(b1-3)Gal(b1-4)GlcNAc(b1-2)Man", "in_short": "as §1"}, "[13]": {"molecular_target": "GlcA3S(b1-3)Gal(b1-4)GlcNAc(b1-3)Gal(b1-4)Glc", "in_short": "as §1"}, "[14]": {"molecular_target": "GlcNAc(a1-3)Gal(b1-4)GlcNAc", "in_short": "as §1"}, "[15]": {"molecular_target": "GlcNAc(a1-4)Gal(b1-3)GlcNAc", "in_short": "as §1"}, "[16]": {"molecular_target": "GlcNAc(a1-4)Gal(b1-4)GalNAc", "in_short": "as §1"}, "[17]": {"molecular_target": "GlcNAc(a1-4)Gal(b1-4)GlcNAc", "in_short": "as §1"}, "[18]": {"molecular_target": "GlcNAc(a1-4)Gal(b1-4)GlcNAc(b1-3)Gal(b1-4)Glc", "in_short": "as §1"}, "[19]": {"molecular_target": "GlcNAc(a1-4)Gal(b1-4)GlcNAc(b1-3)Gal(b1-4)GlcNAc", "in_short": "as §1"}, "[20]": {"molecular_target": "GlcNAc(a1-4)Gal(b1-4)GlcNAc(b1-3)Gal(b1-4)GlcNAc(b1-3)Gal(b1-4)GlcNAc", "in_short": "as §1"}, "[21]": {"molecular_target": "GlcNAc(a1-4)Gal(b1-4)GlcNAc(b1-3)Gal(b1-4)[Fuc(a1-3)]GlcNAc(b1-3)Gal(b1-4)[Fuc(a1-3)]GlcNAc", "in_short": "as §1"}, "[22]": {"molecular_target": "GlcNAc(a1-6)Gal(b1-4)GlcNAc", "in_short": "as §1"}}, "note": "The other results are listed elsewhere or left out."}
{"binder": "B1", "values": [{"measurement": "glycan array binding signal (z-score)", "setting": "Gal6S(b1-4)Glc6S", "value": -0.599}, {"measurement": "glycan array binding signal (z-score)", "setting": "Gal6S(b1-4)GlcNAc", "value": -0.256}, {"measurement": "glycan array binding signal (z-score)", "setting": "Gal6S(b1-4)GlcNAc6S", "value": -0.204}, {"measurement": "glycan array binding signal (z-score)", "setting": "GalNAc(a1-3)Gal", "value": -0.616}, {"measurement": "glycan array binding signal (z-score)", "setting": "GalNAc(a1-3)GalNAc", "value": 0.278}, {"measurement": "glycan array binding signal (z-score)", "setting": "[1]", "value": -0.29}, {"measurement": "glycan array binding signal (z-score)", "setting": "[2]", "value": 0.125}, {"measurement": "glycan array binding signal (z-score)", "setting": "GalNAc(b1-3)Gal", "value": 2.46}, {"measurement": "glycan array binding signal (z-score)", "setting": "[3]", "value": -0.413}, {"measurement": "glycan array binding signal (z-score)", "setting": "[4]", "value": -0.835}, {"measurement": "glycan array binding signal (z-score)", "setting": "[5]", "value": 0.011}, {"measurement": "glycan array binding signal (z-score)", "setting": "GalNAc(b1-3)GalNAc", "value": 0.575}, {"measurement": "glycan array binding signal (z-score)", "setting": "GalNAc(b1-3)GlcNAc", "value": 0.363}, {"measurement": "glycan array binding signal (z-score)", "setting": "GalNAc(b1-4)Gal(b1-4)Glc", "value": 0.053}, {"measurement": "glycan array binding signal (z-score)", "setting": "GalNAc(b1-4)GlcNAc", "value": 0.011}, {"measurement": "glycan array binding signal (z-score)", "setting": "[6]", "value": -0.272}, {"measurement": "glycan array binding signal (z-score)", "setting": "[7]", "value": 1.09}, {"measurement": "glycan array binding signal (z-score)", "setting": "[8]", "value": 0.295}, {"measurement": "glycan array binding signal (z-score)", "setting": "GalNAc(b1-4)GlcNAc6S", "value": -0.368}, {"measurement": "glycan array binding signal (z-score)", "setting": "GalNAc(b1-6)GalNAc", "value": -0.069}, {"measurement": "glycan array binding signal (z-score)", "setting": "GalNAc3S(b1-4)GlcNAc", "value": -0.239}, {"measurement": "glycan array binding signal (z-score)", "setting": "GalNAc3S(b1-4)GlcNAc3S", "value": 0.531}, {"measurement": "glycan array binding signal (z-score)", "setting": "[9]", "value": -0.623}, {"measurement": "glycan array binding signal (z-score)", "setting": "GalNAc4S6S(b1-4)GlcNAc", "value": 0.056}, {"measurement": "glycan array binding signal (z-score)", "setting": "GalNAc6S(b1-4)GlcNAc", "value": -0.433}, {"measurement": "glycan array binding signal (z-score)", "setting": "Glc(a1-4)Glc", "value": 0.668}, {"measurement": "glycan array binding signal (z-score)", "setting": "[10]", "value": 0.061}, {"measurement": "glycan array binding signal (z-score)", "setting": "Glc(a1-6)Glc(a1-6)Glc", "value": -0.684}, {"measurement": "glycan array binding signal (z-score)", "setting": "[11]", "value": 1.67}, {"measurement": "glycan array binding signal (z-score)", "setting": "Glc(b1-4)Glc", "value": 0.01}, {"measurement": "glycan array binding signal (z-score)", "setting": "Glc(b1-6)Glc", "value": 0.98}, {"measurement": "glycan array binding signal (z-score)", "setting": "GlcA(b1-3)Gal", "value": -0.351}, {"measurement": "glycan array binding signal (z-score)", "setting": "GlcA(b1-3)GlcNAc", "value": 0.754}, {"measurement": "glycan array binding signal (z-score)", "setting": "GlcA(b1-6)Gal", "value": -0.196}, {"measurement": "glycan array binding signal (z-score)", "setting": "[12]", "value": -0.34}, {"measurement": "glycan array binding signal (z-score)", "setting": "[13]", "value": -0.299}, {"measurement": "glycan array binding signal (z-score)", "setting": "[14]", "value": -0.405}, {"measurement": "glycan array binding signal (z-score)", "setting": "[15]", "value": -0.205}, {"measurement": "glycan array binding signal (z-score)", "setting": "[16]", "value": -0.436}, {"measurement": "glycan array binding signal (z-score)", "setting": "[17]", "value": -0.386}, {"measurement": "glycan array binding signal (z-score)", "setting": "[18]", "value": 0.298}, {"measurement": "glycan array binding signal (z-score)", "setting": "[19]", "value": -0.177}, {"measurement": "glycan array binding signal (z-score)", "setting": "[20]", "value": -0.139}, {"measurement": "glycan array binding signal (z-score)", "setting": "[21]", "value": -0.574}, {"measurement": "glycan array binding signal (z-score)", "setting": "[22]", "value": 0.062}]}
